According to patent US20200317791A1:
These are yes or no findings as the source states them, for the method shown. Some results given as binding are weak or reduced against the parent protein; the word gives no strength.

The chains behind the UniProt entries cited, without tags or fusion partners. Where a name states a change or a piece, a line headed by the entry shows the natural chain unless it says otherwise.
UniProt P10321: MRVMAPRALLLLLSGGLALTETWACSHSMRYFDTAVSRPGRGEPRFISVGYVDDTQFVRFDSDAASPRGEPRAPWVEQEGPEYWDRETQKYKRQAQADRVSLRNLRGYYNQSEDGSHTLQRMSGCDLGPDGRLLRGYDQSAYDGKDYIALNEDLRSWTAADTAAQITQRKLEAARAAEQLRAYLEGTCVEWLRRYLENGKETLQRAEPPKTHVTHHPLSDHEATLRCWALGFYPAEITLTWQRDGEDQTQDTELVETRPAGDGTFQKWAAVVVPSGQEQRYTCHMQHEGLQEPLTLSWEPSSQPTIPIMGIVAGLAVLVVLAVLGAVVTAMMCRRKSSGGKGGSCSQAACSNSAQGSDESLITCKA

B1: CW6B228 (antibody, V domains shown)
VH: QVQLQESGPGLVKPSETLSLTCTVSGNSIRSYYWSWIRQPAGKGLEWIGRIYISGNTNYNPSLKSRVTMSIDTSKNQFSLKLSSVTAADTAVYYCARLSGIDAFDIWGQGTMVTVSS
VL: DIQMTQSPSSLSASVGDRVTITCQASQDINNYLNWYQQKPGKAPKLLIYDASSLETGVPSRFSGSGSGTDFTFTISSLQPEDFATYYCQQYDDLPITFGQGTRLEIK
B2: CW6B130 (antibody, V domains shown)
VH: QLQLQESGPGLVKPSETLSLTCTVSGASISSINYYWGWIRQPPGKGLEWIGSFYYSGNTYYNPSLKSRVTISVDTSKNYFSLKLNSVTAADTAVYYCAREYYDSSGYYPFEPWGQGTLVTVSS
VL: SYVLTQPPSVSVAPGQTARITCGGDNIGSESVHWYQQKPGQAPVLVVYDDTDRPSGIPERFSGSKSGTTATLTISWVEAGDEADYYCQVWDSSSDHVVFGGGTKLTVL
B3: CW6B175 (antibody, V domains shown)
VH: EVQLVESGGGLVQPGGSLRLSCAASGFTFTNYWMTWVRQAPGKGLEWVANIKQSGSEKYYVDSVKGRFTISRDNAKNSLYLQMNSLRAEDTAVYYCARTLYEWELEPFDYWGQGTLVTVSS
VL: SYVLTQPPSVSVAPGQTARITCGGNRIGSKSVHWYQQKPGQAPVLVVFDDSDRPSGIPERFSGSNSGITATLTISRVEAGDEADYYCQVWDSSNDHVVFGGGTKLTVL

Legend:
[1] = biological target: rhHLA-Cw6 stably expressed on K562 cells (K562-rhHLA-Cw6) (human) (UniProt P10321); test: MSD cell binding
[2] = biological target: CW6W47.001; test: SPR Biacore 8K, captured mAb

Binder	binding [1]	binding [2]
B1	binds	
B2		no binding (tested: 3.7-100 nM antigen)
B3		no binding (tested: 3.7-100 nM antigen)
